No constants are given. Whether binding was seen depends on the method and setting. In cells and extracts the contact can be indirect. Some binding calls cover weakened binding; strength is not graded here. Blank lines part the entries; values can stand above or below the substance they belong to.
What was measured:
[1] = molecular target: mitogen-activated protein kinase 2 (MK2), endogenous in HepG2 cells (human (endogenous in HepG2)) (UniProt P49137); assay: co-IP; endogenous proteins in HepG2 cells; reciprocal, with anti-COPS5 or anti-MK2 antibody
[2] = molecular target: His-tagged MK2 (UniProt P49137); assay: co-IP; HEK293T cells co-transfected with COPS5-Flag and MK2-His plasmids; anti-Flag or anti-His antibody
[3] = molecular target: Flag-tagged COPS5 (UniProt Q92905); assay: as above
[4] = molecular target: COP9 signalosome subunit 5 (COPS5), endogenous in HepG2 cells (human (endogenous in HepG2)) (UniProt Q92905); assay: co-IP; endogenous proteins in HepG2 cells; reciprocal, with anti-COPS5 or anti-MK2 antibody

By UniProt entry, the sequences of proteins in these tests, tags left out.
UniProt P49137: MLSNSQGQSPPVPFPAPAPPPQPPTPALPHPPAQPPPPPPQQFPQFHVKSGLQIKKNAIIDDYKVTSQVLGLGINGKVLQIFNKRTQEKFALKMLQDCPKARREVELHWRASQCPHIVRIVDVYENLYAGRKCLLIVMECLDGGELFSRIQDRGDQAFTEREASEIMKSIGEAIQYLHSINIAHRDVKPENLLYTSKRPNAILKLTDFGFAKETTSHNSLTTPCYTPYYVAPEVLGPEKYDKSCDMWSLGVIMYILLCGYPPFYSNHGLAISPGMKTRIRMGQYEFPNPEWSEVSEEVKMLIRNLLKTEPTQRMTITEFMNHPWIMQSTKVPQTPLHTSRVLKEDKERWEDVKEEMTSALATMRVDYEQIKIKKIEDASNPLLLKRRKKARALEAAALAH
UniProt Q92905: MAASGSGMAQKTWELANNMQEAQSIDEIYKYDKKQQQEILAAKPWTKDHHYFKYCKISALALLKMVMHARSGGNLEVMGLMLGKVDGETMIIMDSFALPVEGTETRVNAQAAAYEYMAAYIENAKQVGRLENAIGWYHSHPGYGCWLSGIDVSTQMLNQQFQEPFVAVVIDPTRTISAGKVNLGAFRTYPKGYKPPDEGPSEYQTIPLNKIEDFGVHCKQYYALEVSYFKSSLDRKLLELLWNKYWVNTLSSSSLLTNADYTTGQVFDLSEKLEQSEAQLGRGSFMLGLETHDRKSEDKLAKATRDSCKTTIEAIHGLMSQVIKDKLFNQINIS

binding [1]: binds
Substance: COP9 signalosome subunit 5 (COPS5), endogenous in HepG2 cells (from UniProt Q92905 1-334)

binding [2]: binds
Substance: Flag-tagged COPS5 (from UniProt Q92905 1-334)

binding [3]: binds
Substance: His-tagged MK2 (from UniProt P49137 1-400)

binding [4]: binds
Substance: mitogen-activated protein kinase 2 (MK2), endogenous in HepG2 cells (from UniProt P49137 1-400)

Source: publication PMC12165036
